PubChem BioAssay AID1259308, NCATS – 2017
Test: 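Knock-downs that increase output of a recombinant reporter protein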 (primary screen). Cell system: human HEK293 embryonic kidney cells stably expressing firefly luciferase (HEK-CMV-Luc2-Hygro). Reagents: single siRNA against human genes, 0.8 pmol siRNA per well. Timing: 72 h. Measured: 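Luciferase light (ONE-Glo) measured on one replicate plate set and viability (CellTiter-Glo) on the other, scaled to a negative control siRNA, with robust z-scores and luciferase per cell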. Direction: total luciferase, z-score and total luciferase, % of control: higher = more reporter protein produced; luciferase per cell, z-score: higher = more reporter output per viable cell; viable cells, % of control: higher = more viable cells. Active means: 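Active when the median/MAD z-score for overall luciferase is greater than 3; a gene was taken forward for validation with new siRNAs if at least two of its three siRNAs passed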. Calls: active = raised luciferase; inactive = no rise.
The deposit covers about 59,000 reagents; shown is a random part of them. Of all reagents, about 1,510 (2.6%) were called active. 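Calls use total luciferase alone and ignore viability, so some active siRNAs may act by altering cell number.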 A number with no mark means an inactive call. The numbers tell different reagents against one gene apart.

| target gene | siRNA no. | total luciferase, z-score | total luciferase, % of control | luciferase per cell, z-score | viable cells, % of control |
| --- | --- | --- | --- | --- | --- |
| ARID3B | 1 | 1.68 | 115 | 0.723 | 107 |
| ARID3B | 2 | -0.222 | 77.5 | -0.0707 | 88.2 |
| ARID3B | 3 | 1.89 | 120 | 1.61 | 87.3 |
| THBS1 | 1 | 0.611 | 94 | 0.169 | 101 |
| THBS1 | 2 | -1.02 | 61.5 | -1.16 | 93.3 |
| THBS1 | 3 | -1.01 | 61.9 | -0.864 | 86.8 |
| ZNF382 | 1 | -0.822 | 65.5 | -0.196 | 77.1 |
| ZNF382 | 2 | 0.324 | 88.3 | 0.214 | 93.3 |
| ZNF382 | 3 | -0.771 | 66.6 | -1.1 | 99.2 |
| GUSB | 1 | -0.513 | 71.7 | -0.617 | 94.2 |
| GUSB | 2 | 2.54 | 132 | 1.71 | 94.3 |
| GUSB | 3 | -0.367 | 74.6 | -0.0558 | 84.6 |
| PSD4 | 1 | -0.444 | 73.1 | -0.261 | 87.4 |
| PSD4 | 2 | 0.317 | 88.2 | 0.0193 | 98.1 |
| PSD4 | 3 | 0.867 | 99.1 | 1.23 | 80.1 |
| CTSF | 1 | -0.494 | 72.1 | -0.832 | 100 |
| CTSF | 2 | -0.971 | 62.6 | -1.07 | 92.7 |
| CTSF | 3 | 2.58 | 133 | 1.63 | 96.9 |
| MID2 | 1 | -0.251 | 76.9 | -0.52 | 98.5 |
| MID2 | 2 | -2.03 | 41.4 | -1.88 | 76 |
| MID2 | 3 | -1.28 | 56.5 | -0.847 | 78.9 |
| STK33 | 1 | -0.105 | 79.8 | 0.0655 | 87.6 |
| STK33 | 2 | -0.149 | 78.9 | -0.657 | 105 |
| STK33 | 3 | -0.732 | 67.3 | 0.376 | 68.2 |
| RUNDC3A | 1 | 0.281 | 87.5 | 0.479 | 86.2 |
| RUNDC3A | 2 | -0.372 | 74.5 | -0.702 | 100 |
| RUNDC3A | 3 | -0.783 | 66.3 | -0.0168 | 74.4 |
| CLVS2 | 1 | 0.49 | 91.6 | 0.734 | 84.4 |
| CLVS2 | 2 | -0.57 | 70.6 | -0.18 | 82.7 |
| CLVS2 | 3 | 0.214 | 86.1 | 0.279 | 89.4 |
| LINC02939 | 1 | -0.239 | 77.1 | -0.46 | 97.3 |
| LINC02939 | 2 | 3.48 (active) | 151 | 2.58 | 85.7 |
| LINC02939 | 3 | 0.181 | 85.5 | 0.664 | 80.2 |
| IKBKE | 1 | 1.89 | 120 | 1.84 | 82.2 |
| IKBKE | 2 | -0.421 | 73.5 | -0.16 | 85.7 |
| IKBKE | 3 | -1.68 | 48.6 | -1.79 | 87 |
| CCDC74A | 1 | -0.681 | 68.3 | -0.869 | 96 |
| CCDC74A | 2 | 0.928 | 100 | 1.18 | 82.2 |
| CCDC74A | 3 | -0.505 | 71.8 | -0.628 | 94.7 |
| ACSL5 | 1 | -0.803 | 65.9 | -0.707 | 88.7 |
| ACSL5 | 2 | 0.523 | 92.3 | 0.133 | 99.6 |
| ACSL5 | 3 | -0.154 | 78.8 | -0.381 | 97.4 |
| NBPF22P | 1 | -0.174 | 78.4 | 0.0446 | 86.6 |
| NBPF22P | 2 | 0.323 | 88.3 | 1.93 | 59.4 |
| NBPF22P | 3 | -0.98 | 62.4 | -0.298 | 75.4 |
| KLHDC1 | 1 | 0.976 | 101 | 0.687 | 94.5 |
| KLHDC1 | 2 | 4.12 (active) | 164 | 2.23 | 102 |
| KLHDC1 | 3 | 0.669 | 95.2 | 0.305 | 98.2 |
| LHFPL1 | 1 | 1.94 | 121 | 1.94 | 80.8 |
| LHFPL1 | 2 | -0.312 | 75.7 | 0.832 | 67.9 |
| LHFPL1 | 3 | 0.296 | 87.8 | -0.327 | 107 |
| TDRD3 | 1 | 0.711 | 96 | 0.535 | 93.2 |
| TDRD3 | 2 | -1.2 | 58.1 | -1.85 | 106 |
| TDRD3 | 3 | 0.132 | 84.5 | 0.53 | 82.2 |
| EMC7 | 1 | -1.96 | 42.9 | -1.19 | 65.7 |
| EMC7 | 2 | 0.4 | 89.8 | -0.468 | 114 |
| EMC7 | 3 | -0.143 | 79 | -0.639 | 104 |

Individual results from the list:
PSD4 #2, viable cells, % of control → 98.1
For “viable cells, % of control”, ACSL5 #3 has 97.4
